In US9320736B2, “Zinc chelating agents for depleting XIAP and sensitizing tumor cells to apoptosis” (Institute for Cancer Research, priority 2012, dated 2016):
Entries after “also recorded” stand apart in the source; their conditions may differ. For at least one compound, name, drawing or mass did not settle the structure.

Tested on: XIAP
Assay: XIAP depletion in PC-3 cells by Western blot / immunoblotting
Format: cell-based, human
Conditions: PPIX 50 μM, 4 hours, FIG. 1
Procedure: PC-3 cells were cultured in medium alone, or in the presence of PPIX (50 μM) for 4 hours, or 5-Ala (250 μM) for 24 hours. Expression of XIAP and GAPDH (control) was detected by immunoblotting with an antibody to XIAP or GADPH, respectively.
Cell Lines and Culture Conditions. A PC-3 castration-resistant prostate cancer cell line was obtained from the American Type and Culture Collection (Rockville, Md.). PC-3 cells were maintained in complete cell culture medium (RPMI 1640 medium (Bio-Whittaker, Walkersville, Md.) supplemented with 10% FCS (Hyclone, Logan, Utah), gentamicin (50 mg/L), sodium pyruvate (1 mM) and non-essential amino acids (0.1 mM)).
Analysis of XIAP Depletion in PC-3 Cell Line Following Administration of Heterocyclic Zn Chelators. PC-3 cells were cultured under three distinct conditions; medium alone, with administration of TPEN (8 μM) as a positive control for 2 hours, and with administration of an individual Zn chelators (MR) (50 μM) for 4 hours.
Western blot analysis was performed to assess for level of XIAP depletion. Whole cell lysates were prepared as described previously (Kolenko V et al. (1999) J. Immunol. 163: 590-8). Protein concentrations were measured with BCA protein assay reagents (Pierce, Rockford, Ill.). […]

**Q.** With C=CC1=C(C)c2cc3[nH]c(cc4nc(cc5[nH]c(cc1n2)c(C)c5CCC(=O)O)C(CCC(=O)O)=C4C)c(C)c3C=C [PPIX, protoporphyrin IX] as the molecule, how does the “XIAP expression (immunoblot)” value read?
**A.** reduces XIAP levels; also recorded: significantly reduced XIAP expression
